Assay results taken from the supplement of paper PMC10849652.
The other results are listed elsewhere or left out.

Amino acid sequences for entries named in this document (tags omitted). A change or cut given only in a name is not applied to a line headed by its entry.
UniProt Q53GS9: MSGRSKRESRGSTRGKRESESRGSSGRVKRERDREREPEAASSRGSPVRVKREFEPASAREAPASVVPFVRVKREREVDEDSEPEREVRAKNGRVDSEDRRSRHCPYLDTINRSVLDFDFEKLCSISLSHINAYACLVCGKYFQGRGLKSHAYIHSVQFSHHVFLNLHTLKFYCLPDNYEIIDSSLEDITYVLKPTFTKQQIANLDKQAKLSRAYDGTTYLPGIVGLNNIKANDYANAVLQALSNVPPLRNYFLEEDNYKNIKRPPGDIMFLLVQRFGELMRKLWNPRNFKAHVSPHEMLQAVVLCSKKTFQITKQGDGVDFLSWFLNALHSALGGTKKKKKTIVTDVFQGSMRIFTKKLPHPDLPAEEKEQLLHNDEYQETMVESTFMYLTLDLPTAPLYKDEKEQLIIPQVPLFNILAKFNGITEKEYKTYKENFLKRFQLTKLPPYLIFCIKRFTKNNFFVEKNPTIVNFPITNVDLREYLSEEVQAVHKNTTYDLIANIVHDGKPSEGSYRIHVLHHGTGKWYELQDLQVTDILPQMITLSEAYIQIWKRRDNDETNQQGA
UniProt Q6PHR2: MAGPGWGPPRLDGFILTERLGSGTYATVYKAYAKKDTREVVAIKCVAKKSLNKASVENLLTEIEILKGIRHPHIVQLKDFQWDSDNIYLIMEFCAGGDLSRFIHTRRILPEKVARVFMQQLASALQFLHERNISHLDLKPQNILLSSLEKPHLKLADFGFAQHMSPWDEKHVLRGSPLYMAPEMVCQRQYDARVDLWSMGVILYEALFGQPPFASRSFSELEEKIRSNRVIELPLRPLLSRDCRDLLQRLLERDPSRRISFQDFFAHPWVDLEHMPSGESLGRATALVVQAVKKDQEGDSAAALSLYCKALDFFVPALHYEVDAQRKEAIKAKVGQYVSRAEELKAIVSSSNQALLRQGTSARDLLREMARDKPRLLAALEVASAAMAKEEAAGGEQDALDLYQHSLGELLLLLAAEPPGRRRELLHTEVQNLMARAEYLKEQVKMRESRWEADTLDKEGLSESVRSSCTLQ
UniProt P11172: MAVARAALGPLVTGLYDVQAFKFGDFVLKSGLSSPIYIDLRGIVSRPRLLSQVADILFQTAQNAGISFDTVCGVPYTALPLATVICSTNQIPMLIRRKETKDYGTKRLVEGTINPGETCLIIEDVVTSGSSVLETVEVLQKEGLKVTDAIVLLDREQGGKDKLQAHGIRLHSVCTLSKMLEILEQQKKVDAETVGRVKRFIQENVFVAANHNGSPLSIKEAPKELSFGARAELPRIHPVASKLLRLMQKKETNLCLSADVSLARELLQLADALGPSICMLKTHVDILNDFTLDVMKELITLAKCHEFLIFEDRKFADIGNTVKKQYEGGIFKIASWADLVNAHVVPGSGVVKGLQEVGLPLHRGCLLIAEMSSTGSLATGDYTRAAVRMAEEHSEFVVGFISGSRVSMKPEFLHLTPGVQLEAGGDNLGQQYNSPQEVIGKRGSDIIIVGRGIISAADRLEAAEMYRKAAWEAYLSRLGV
UniProt Q9Y3C8: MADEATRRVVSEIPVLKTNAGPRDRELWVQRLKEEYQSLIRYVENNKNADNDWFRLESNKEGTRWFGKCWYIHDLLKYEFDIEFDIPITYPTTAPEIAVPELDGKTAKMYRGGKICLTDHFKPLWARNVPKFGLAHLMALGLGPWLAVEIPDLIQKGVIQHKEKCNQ
UniProt P18206: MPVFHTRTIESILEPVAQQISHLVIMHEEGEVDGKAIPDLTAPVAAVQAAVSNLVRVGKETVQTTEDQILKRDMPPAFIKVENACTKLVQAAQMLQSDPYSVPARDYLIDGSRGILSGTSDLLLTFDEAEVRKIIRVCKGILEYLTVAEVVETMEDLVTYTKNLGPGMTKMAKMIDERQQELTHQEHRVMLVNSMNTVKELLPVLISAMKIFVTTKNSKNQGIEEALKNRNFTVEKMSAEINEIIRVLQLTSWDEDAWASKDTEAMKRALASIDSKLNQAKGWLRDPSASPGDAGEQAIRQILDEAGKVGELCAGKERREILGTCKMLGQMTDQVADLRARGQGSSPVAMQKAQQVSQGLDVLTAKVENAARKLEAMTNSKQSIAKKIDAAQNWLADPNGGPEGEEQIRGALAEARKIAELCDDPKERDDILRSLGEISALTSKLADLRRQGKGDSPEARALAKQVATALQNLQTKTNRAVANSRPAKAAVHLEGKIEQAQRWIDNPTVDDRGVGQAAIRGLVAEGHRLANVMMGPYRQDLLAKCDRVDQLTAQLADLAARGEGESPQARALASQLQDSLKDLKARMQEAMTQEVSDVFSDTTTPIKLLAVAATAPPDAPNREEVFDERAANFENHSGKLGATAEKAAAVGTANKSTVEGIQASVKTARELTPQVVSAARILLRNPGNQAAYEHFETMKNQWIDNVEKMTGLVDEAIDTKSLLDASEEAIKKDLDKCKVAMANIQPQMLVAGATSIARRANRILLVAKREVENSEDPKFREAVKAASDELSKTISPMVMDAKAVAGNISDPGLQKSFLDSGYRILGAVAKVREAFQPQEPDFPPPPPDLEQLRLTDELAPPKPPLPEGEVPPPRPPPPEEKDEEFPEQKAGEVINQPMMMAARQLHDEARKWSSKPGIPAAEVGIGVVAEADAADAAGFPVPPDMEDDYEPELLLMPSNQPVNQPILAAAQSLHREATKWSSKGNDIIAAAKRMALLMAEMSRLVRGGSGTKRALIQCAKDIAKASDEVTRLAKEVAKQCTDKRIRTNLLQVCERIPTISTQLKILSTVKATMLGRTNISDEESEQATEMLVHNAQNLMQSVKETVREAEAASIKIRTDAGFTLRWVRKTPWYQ
UniProt Q9UHP3: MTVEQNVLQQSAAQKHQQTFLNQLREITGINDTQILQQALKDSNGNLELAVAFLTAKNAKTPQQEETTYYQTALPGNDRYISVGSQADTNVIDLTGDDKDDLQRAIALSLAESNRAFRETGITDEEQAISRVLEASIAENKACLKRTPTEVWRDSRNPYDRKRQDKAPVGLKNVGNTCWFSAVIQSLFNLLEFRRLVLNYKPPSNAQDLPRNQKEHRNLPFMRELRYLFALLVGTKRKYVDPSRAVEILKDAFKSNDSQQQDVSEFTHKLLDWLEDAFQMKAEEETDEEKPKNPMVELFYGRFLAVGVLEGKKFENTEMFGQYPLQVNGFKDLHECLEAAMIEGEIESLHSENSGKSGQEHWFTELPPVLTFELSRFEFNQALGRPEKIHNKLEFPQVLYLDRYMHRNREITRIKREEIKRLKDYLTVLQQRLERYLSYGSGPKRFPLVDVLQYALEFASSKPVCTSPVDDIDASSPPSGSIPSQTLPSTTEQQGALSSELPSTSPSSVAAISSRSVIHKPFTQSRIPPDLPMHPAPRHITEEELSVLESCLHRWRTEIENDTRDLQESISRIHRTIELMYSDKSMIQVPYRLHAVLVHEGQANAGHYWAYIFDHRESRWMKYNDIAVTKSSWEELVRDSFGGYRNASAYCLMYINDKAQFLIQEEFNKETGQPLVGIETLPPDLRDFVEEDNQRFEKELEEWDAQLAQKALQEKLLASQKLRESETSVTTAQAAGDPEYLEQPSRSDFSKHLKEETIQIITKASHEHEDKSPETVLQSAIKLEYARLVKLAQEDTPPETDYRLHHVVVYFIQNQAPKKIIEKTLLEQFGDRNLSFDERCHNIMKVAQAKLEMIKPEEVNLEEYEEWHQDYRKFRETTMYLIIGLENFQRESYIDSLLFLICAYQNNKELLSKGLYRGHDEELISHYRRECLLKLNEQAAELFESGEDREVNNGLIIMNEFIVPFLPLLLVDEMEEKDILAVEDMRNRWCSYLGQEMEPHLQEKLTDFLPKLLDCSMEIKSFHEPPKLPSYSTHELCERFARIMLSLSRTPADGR
UniProt Q9UDW1: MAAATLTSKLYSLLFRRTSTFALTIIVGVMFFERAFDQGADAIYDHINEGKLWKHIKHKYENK
UniProt O60287: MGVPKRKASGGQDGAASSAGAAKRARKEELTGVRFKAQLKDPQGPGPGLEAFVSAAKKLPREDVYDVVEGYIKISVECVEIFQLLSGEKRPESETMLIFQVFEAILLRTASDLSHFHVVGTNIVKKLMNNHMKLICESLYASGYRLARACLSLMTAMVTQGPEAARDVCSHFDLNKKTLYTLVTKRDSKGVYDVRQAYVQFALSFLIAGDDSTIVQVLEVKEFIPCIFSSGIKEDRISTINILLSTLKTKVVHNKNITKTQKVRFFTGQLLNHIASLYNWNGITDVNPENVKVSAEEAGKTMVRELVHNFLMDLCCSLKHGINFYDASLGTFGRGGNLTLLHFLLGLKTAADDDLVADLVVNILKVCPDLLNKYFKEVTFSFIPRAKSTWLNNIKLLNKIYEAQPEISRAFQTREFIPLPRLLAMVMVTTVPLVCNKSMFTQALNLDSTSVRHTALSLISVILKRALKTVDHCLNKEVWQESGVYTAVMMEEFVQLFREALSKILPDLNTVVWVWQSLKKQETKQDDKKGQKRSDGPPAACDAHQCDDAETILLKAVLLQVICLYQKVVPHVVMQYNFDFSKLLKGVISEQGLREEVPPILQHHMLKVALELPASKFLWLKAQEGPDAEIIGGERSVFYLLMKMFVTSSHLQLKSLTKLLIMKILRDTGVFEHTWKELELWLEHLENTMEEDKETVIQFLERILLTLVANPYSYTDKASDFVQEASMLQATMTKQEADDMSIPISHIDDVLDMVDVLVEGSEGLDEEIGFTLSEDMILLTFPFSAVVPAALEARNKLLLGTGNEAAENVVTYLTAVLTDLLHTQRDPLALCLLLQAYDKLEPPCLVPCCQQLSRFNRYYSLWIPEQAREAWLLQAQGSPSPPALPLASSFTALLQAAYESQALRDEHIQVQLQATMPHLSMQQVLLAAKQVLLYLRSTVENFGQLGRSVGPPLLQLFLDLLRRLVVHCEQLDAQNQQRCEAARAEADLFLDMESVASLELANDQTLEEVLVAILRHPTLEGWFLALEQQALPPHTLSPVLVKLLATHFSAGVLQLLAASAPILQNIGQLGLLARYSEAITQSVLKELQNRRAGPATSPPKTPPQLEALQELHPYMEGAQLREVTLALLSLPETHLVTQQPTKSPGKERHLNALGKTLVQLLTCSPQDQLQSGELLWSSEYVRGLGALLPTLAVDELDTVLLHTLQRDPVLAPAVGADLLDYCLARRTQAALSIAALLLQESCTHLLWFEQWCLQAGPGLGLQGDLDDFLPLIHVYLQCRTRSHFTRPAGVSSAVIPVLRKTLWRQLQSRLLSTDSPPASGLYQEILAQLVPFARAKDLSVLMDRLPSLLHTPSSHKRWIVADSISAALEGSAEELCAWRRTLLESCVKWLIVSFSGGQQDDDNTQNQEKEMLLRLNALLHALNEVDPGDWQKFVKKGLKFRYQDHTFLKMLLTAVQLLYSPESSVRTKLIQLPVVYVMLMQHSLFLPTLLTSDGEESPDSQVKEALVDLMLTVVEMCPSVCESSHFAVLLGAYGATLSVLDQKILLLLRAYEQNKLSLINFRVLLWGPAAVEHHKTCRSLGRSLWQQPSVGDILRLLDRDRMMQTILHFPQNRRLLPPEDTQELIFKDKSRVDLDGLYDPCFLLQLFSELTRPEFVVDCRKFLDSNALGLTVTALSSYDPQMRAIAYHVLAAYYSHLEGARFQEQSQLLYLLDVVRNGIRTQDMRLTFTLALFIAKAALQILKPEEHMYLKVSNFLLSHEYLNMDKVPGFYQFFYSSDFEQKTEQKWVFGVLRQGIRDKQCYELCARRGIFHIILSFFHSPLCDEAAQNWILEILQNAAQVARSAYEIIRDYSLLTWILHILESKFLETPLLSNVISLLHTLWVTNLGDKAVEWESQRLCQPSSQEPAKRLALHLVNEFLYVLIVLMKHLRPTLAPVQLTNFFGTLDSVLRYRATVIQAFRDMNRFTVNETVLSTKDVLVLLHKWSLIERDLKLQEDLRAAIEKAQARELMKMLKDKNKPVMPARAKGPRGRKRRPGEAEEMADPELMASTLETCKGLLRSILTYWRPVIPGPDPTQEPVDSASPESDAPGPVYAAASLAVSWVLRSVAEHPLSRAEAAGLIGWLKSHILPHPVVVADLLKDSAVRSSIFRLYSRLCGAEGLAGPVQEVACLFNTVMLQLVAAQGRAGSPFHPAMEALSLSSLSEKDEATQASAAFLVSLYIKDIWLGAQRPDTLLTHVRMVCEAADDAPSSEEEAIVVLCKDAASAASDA

Key:
Assay in all cases: log2 fold change, soluble protein after heating vs DMSO (PISA); higher = thermal stabilisation; K562 lysate, 10 uM; active = over 0.2 and 3.5 SD of the protein, either way, in both replicates (recomputed)
lapatinib = compound: CS(=O)(=O)CCNCc1ccc(-c2ccc3ncnc(Nc4ccc(OCc5cccc(F)c5)c(Cl)c4)c3c2)o1 [lapatinib]
Outline: (§1)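 Values give the log-two fold change in thermal stability against solvent controls, from duplicates. Crude K562 extract at 1 mg/mL protein, made by dounce homogenisation in PBS pH 7.4 with 1 mM MgCl2, was treated with 10 μM compound for 30 min. After 3 min heating across 48°C-58°C, aliquots were pooled, adjusted to 0.5% NP-40 at 4°C and centrifuged at 21,000xg for 90 min. The supernatant was measured by TMTpro 16plex LC-MS/MS with channel sums equalised.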

pictilisib = compound: CS(=O)(=O)N1CCN(Cc2cc3nc(-c4cccc5[nH]ncc45)nc(N4CCOCC4)c3s2)CC1 [pictilisib]
Outline: as §1

crizotinib = compound: C[C@@H](Oc1cc(-c2cnn(C3CCNCC3)c2)cnc1N)c1c(Cl)ccc(F)c1Cl [crizotinib]
Outline: as §1

[1] = compound: C[C@H](C1=CC=C(C=C1)C(=O)NC2=C3C=CNC3=NC=C2)N
Outline: as §1

duvelisib = compound: C[C@H](Nc1ncnc2nc[nH]c12)c1cc2cccc(Cl)c2c(=O)n1-c1ccccc1 [duvelisib]
Outline: as §1

gandotinib = compound: Cc1cc(Nc2cc(CN3CCOCC3)c3nc(C)c(Cc4ccc(Cl)cc4F)n3n2)n[nH]1 [gandotinib]
Outline: as §1

tozasertib = compound: Cc1cc(Nc2cc(N3CCN(C)CC3)nc(Sc3ccc(NC(=O)C4CC4)cc3)n2)n[nH]1 [tozasertib]
Outline: as §1

doramapimod = compound: Cc1ccc(-n2nc(C(C)(C)C)cc2NC(=O)Nc2ccc(OCCN3CCOCC3)c3ccccc23)cc1 [doramapimod]
Outline: as §1

bafetinib = compound: Cc1ccc(NC(=O)c2ccc(CN3CC[C@H](N(C)C)C3)c(C(F)(F)F)c2)cc1Nc1nccc(-c2cncnc2)n1 [bafetinib]
Outline: as §1

[2] = compound: Cc1cccc(CC(=O)N2CCc3c2ccc(-c2cn(C)c4ncnc(N)c24)c3F)n1
Outline: as §1

nilotinib = compound: Cc1cn(-c2cc(NC(=O)c3ccc(C)c(Nc4nccc(-c5cccnc5)n4)c3)cc(C(F)(F)F)c2)cn1 [nilotinib]
Outline: as §1

[3] = compound: Cc1nc(Nc2n[nH]c3c2CN(C(=O)N[C@H](CN(C)C)c2ccccc2)C3(C)C)c2sccc2n1
Outline: as §1

dasatinib = compound: Cc1nc(Nc2ncc(C(=O)Nc3c(C)cccc3Cl)s2)cc(N2CCN(CCO)CC2)n1 [dasatinib]
Outline: as §1

[4] = compound: Cc1ncc(-c2ccnc(Nc3ccc(S(C)(=O)=O)cc3)n2)n1C(C)C
Outline: as §1

[5] = compound: Cn1cc(-c2ccc3c(c2)CCN3C(=O)Cc2cccc(C(F)(F)F)c2)c2c(N)ncnc21
Outline: as §1

quisinostat = compound: Cn1cc(CNCC2CCN(c3ncc(C(=O)NO)cn3)CC2)c2ccccc21 [quisinostat]
Outline: as §1

tipifarnib = compound: Cn1cncc1[C@@](N)(c1ccc(Cl)cc1)c1ccc2c(c1)c(-c1cccc(Cl)c1)cc(=O)n2C [tipifarnib]
Outline: as §1

[6] = compound: NC(=O)Nc1cc(-c2cccc(F)c2)sc1C(=O)N[C@H]1CCCNC1
Outline: as §1

[7] = compound: NC(=O)c1cnc(N[C@@H]2CCCC[C@@H]2N)nc1Nc1cccc(-n2nccn2)c1
Outline: as §1

[8] = compound: NC1(c2ccc(-c3nc4ccn5c(=O)[nH]nc5c4cc3-c3ccccc3)cc2)CCC1
Outline: as §1

Measured: log2 fold change

USP39 (UniProt Q53GS9)
inactive: lapatinib -0.028 | pictilisib 0.031 | crizotinib -0.005 | [1] 0 | duvelisib 0.02 | gandotinib -0.102 | tozasertib 0.021 | doramapimod -0.002 | bafetinib -0.034 | [2] 0.033 | nilotinib 0.012 | [3] 0.001 | dasatinib 0.004 | [4] -0.011 | [5] -0.024 | quisinostat -0.011 | tipifarnib -0.016 | [6] 0.019 | [7] 0.005 | [8] 0.004

ULK3 isoform 4 (UniProt Q6PHR2)
inactive: lapatinib 0.059 | pictilisib -0.008 | crizotinib -0.088 | [1] 0.113 | duvelisib 0.065 | gandotinib -0.08 | tozasertib 0.059 | doramapimod -0.15 | bafetinib 0.041 | [2] 0.354 | dasatinib 0.035 | [5] -0.181 | quisinostat -0.11 | [6] 0.296 | [7] 0.133 | [8] -0.157

UMPS (UniProt P11172)
inactive: lapatinib -0.014 | pictilisib -0.019 | crizotinib -0.012 | [1] -0.001 | duvelisib -0.026 | gandotinib -0.058 | tozasertib -0.023 | doramapimod 0.027 | bafetinib 0.003 | [2] -0.004 | nilotinib 0.005 | [3] 0.007 | dasatinib -0.01 | [4] 0 | [5] 0.024 | quisinostat -0.028 | tipifarnib 0.01 | [6] 0.001 | [7] 0.002 | [8] -0.004

USP7 (UniProt H3BND8)
inactive: lapatinib -0.006 | pictilisib 0.427 | bafetinib -0.421 | nilotinib -0.121 | [3] 0.508 | [4] 0.232 | tipifarnib -0.082 | [7] 0.207

USO1 isoform 2 (UniProt O60763)
inactive: lapatinib -0.014 | pictilisib 0.008 | crizotinib -0.014 | [1] -0.005 | duvelisib 0.003 | gandotinib -0.023 | tozasertib 0 | doramapimod 0.054 | bafetinib -0.013 | [2] 0.016 | nilotinib -0.013 | [3] 0.021 | dasatinib 0.007 | [4] -0.007 | [5] -0.004 | quisinostat -0.03 | tipifarnib -0.023 | [6] -0.007 | [7] 0.002 | [8] -0.007

UFC1 (UniProt Q9Y3C8)
inactive: lapatinib -0.041 | pictilisib -0.012 | crizotinib 0.056 | [1] 0.088 | duvelisib 0.008 | gandotinib -0.019 | tozasertib -0.008 | doramapimod -0.041 | bafetinib 0.095 | [2] -0.057 | nilotinib -0.051 | [3] 0.044 | dasatinib 0.025 | [4] -0.013 | [5] 0.021 | quisinostat 0.114 | tipifarnib 0.003 | [6] -0.038 | [7] -0.02 | [8] 0.039

VCL (UniProt P18206)
inactive: lapatinib -0.002 | pictilisib 0.017 | crizotinib 0.012 | [1] -0.094 | duvelisib 0.026 | gandotinib 0.042 | tozasertib -0.002 | doramapimod 0.014 | bafetinib 0.002 | [2] 0.014 | nilotinib 0.005 | [3] 0.005 | dasatinib 0.008 | [4] 0.003 | [5] -0.003 | quisinostat -0.01 | tipifarnib 0.011 | [6] -0.021 | [7] -0.002 | [8] -0.001

USP25 (UniProt Q9UHP3)
inactive: lapatinib -0.004 | pictilisib -0.012 | crizotinib -0.023 | [1] 0.019 | duvelisib 0 | gandotinib -0.056 | tozasertib -0.003 | doramapimod 0.005 | bafetinib -0.007 | [2] -0.004 | nilotinib 0.016 | [3] 0.013 | dasatinib -0.003 | [4] -0.016 | [5] 0.011 | quisinostat -0.011 | tipifarnib 0.004 | [6] 0.022 | [7] -0.006 | [8] -0.015

UQCR10 (UniProt Q9UDW1)
inactive: lapatinib -0.01 | crizotinib -0.05 | [1] -0.199 | duvelisib 0.011 | gandotinib 0.023 | tozasertib 0.005 | doramapimod 0.04 | [2] 0.188 | nilotinib 0.015 | [3] 0.001 | dasatinib 0.05 | [4] 0.022 | [5] -0.096 | quisinostat -0.001 | tipifarnib 0.038 | [6] -0.006 | [7] -0.066 | [8] -0.013

URB1 (UniProt O60287)
inactive: lapatinib 0.077 | crizotinib -0.18 | [1] -0.238 | duvelisib 0.018 | gandotinib 0.415 | tozasertib 0.104 | doramapimod 0.126 | [2] 0.281 | nilotinib -0.046 | [3] -0.049 | dasatinib -0.062 | [4] 0.185 | [5] 0.081 | quisinostat -0.049 | tipifarnib 0.077 | [6] 0.016 | [7] -0.122 | [8] -0.047

USP5 (UniProt F5H571)
inactive: lapatinib -0.156 | pictilisib -0.237 | bafetinib -0.221 | nilotinib -0.076 | [3] 0.071 | [4] 0.495 | tipifarnib 0.133 | [7] 0.123

2 consecutive entries out of the list so far:
USP25 (UniProt Q9UHP3)
inactive: lapatinib -0.004 | pictilisib -0.012 | crizotinib -0.023 | [1] 0.019 | duvelisib 0 | gandotinib -0.056 | tozasertib -0.003 | doramapimod 0.005 | bafetinib -0.007 | [2] -0.004 | nilotinib 0.016 | [3] 0.013 | dasatinib -0.003 | [4] -0.016 | [5] 0.011 | quisinostat -0.011 | tipifarnib 0.004 | [6] 0.022 | [7] -0.006 | [8] -0.015

UQCR10 (UniProt Q9UDW1)
inactive: lapatinib -0.01 | crizotinib -0.05 | [1] -0.199 | duvelisib 0.011 | gandotinib 0.023 | tozasertib 0.005 | doramapimod 0.04 | [2] 0.188 | nilotinib 0.015 | [3] 0.001 | dasatinib 0.05 | [4] 0.022 | [5] -0.096 | quisinostat -0.001 | tipifarnib 0.038 | [6] -0.006 | [7] -0.066 | [8] -0.013

Next part:

ULK1 (UniProt O75385)
inactive: lapatinib 0.006 | crizotinib 0.138 | [1] 0.099 | duvelisib 0.012 | gandotinib -0.134 | tozasertib 0.092 | doramapimod 0.087 | [2] -0.136 | dasatinib -0.046 | [5] 0.059 | quisinostat 0.183 | [6] 0.22 | [7] 0.008 | [8] 0
